According to PubChem BioAssay AID2685 (National Center for Advancing Translational Sciences (NCATS), 2010):
The campaign covered roughly 320,000 compounds. About 2,100 (0.66%) were called active. The shares of active, inactive and inconclusive entries below differ from those in the screen. Calls follow the shape of the dose curve; as a rule, active = well fitted inhibition curve with a large enough effect in the signal ratio, with a control signal flat (not every such curve was filed as active); inconclusive = small, poorly fitted or top-dose-only effect, or effect the other way, or a change in a side signal; inactive = flat fitted curve, though single readings scatter; the % refers to the signal ratio. Where the call is inconclusive, the potency comes from a doubtful curve fit.
% is scaled to controls: 0 for no effect and ±100 for the full control effect; potency is read from the fitted curve at half-maximal effect.

Experiment: qHTS Assay for Lipid Storage Modulators in Drosophila S3 Cells
Conditions: BODIPY lipid droplet fluorescence, 18-24 h, cells fed with added oleic acid; lipid storage change, negative = inhibition: at 46.1 µM (top of the series) unless noted
Procedure, shortened: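 Laser-scanning cytometry quantifies lipid droplet accumulation (500–530 nm total intensity; droplet/cell object ratio) in oleic acid-fed (400 uM added) Drosophila S3 cells treated with a concentration series. 20 uM Triacsin C defined 100% inhibition.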
For `CC/C(=N\N1CCCCC1)c1c(O)[nH]c(=O)[nH]c1=O`, the lipid storage change, negative = inhibition was inconclusive: -4.61%. For `COc1ccccc1CC(=O)N1CCN(CCc2ccccc2)CC1`, the Potency was inconclusive: 0.517 µM [activator, partial curve]. With `COc1ccc(CCNCc2ccsc2)cc1OC` the lipid storage change, negative = inhibition was inconclusive: -4.22%. With `C[N+]1(C)[C@@H]2CC[C@H]1CC(OC(=O)[C@@H](CO)c1ccccc1)C2` (stereo partly drawn) the lipid storage change, negative = inhibition was inconclusive: 57.3%. For `C=CCN1CCc2cccc3c2[C@H]1Cc1ccc(O)c(O)c1-3`, the lipid storage change, negative = inhibition was inconclusive: 214%. With `O=C1NC(=O)C(=Cc2ccc(-c3ccccc3[N+](=O)[O-])o2)C(=O)N1` the Potency was inconclusive: 29.1 µM [cytotoxic, single point]. In the case of `O=P(OCC(F)(F)C(F)F)(N1CCCCC1)N1CCCCC1`, the Potency is reported as inconclusive: 1.16 µM [falling, full curve, poor fit]. In the case of `Cc1cc(OC(=O)N(C)C)nc(-c2ccc(C)c(Cl)c2)n1`, the lipid storage change, negative = inhibition is reported as inconclusive: 17.7%. With `COc1ccc(C(=O)N2CCCC2=O)cc1` the lipid storage change, negative = inhibition was “inactive”. For `Cc1cc(-c2ccccc2)cc(C)[n+]1Cc1ccccc1`, the lipid storage change, negative = inhibition was inconclusive: -36.9%. In the case of `Clc1ccc2c(N3CCNCC3)ccnc2c1`, the lipid storage change, negative = inhibition is reported as inconclusive: 11.8%. With `CN(C)C1(CNC(=O)Nc2ccc(Cl)c(Cl)c2)CCCCC1` the Potency was inconclusive: 5.8 µM [activator, full curve, poor fit]. For `CC(C)CC(=O)NC(Oc1ccc(Cl)cc1)C(Cl)(Cl)Cl` (stereo not drawn), the lipid storage change, negative = inhibition was inconclusive: -33.9%. In the case of `CC(C)CCNC(=O)c1c(N)n(CC2CCCO2)c2nc3ccccc3nc12` (stereo not drawn), the Potency is reported as inconclusive: 0.411 µM [activator, full curve, poor fit]. For `Cc1cnn(C2CCN(C)CC2)c1N`, the lipid storage change, negative = inhibition was inconclusive: -50.7%. In the case of `O=c1[nH]c(=S)n(C2CC2)c(O)c1/C=N/N1CCOCC1`, the Potency is reported as inconclusive: 0.326 µM [falling, full curve, poor fit]. For `Cc1ccccc1N`, the lipid storage change, negative = inhibition was inconclusive: 11.9%. For `CC(C)(C)N1Cc2ccccc2C1=N`, the lipid storage change, negative = inhibition was inconclusive: -187%. For `COc1ccc(C(C)=O)cc1CN1CC=C(c2ccccc2)CC1`, the Potency was inconclusive: 0.0046 µM [activator, full curve, poor fit]. In the case of `Cn1nc(OC(=O)Nc2cccc(Cl)c2)cc1C(F)(F)F`, the Potency is reported as inconclusive: 0.231 µM [falling, full curve, poor fit]. With `O=C1CC(=O)N(c2ccc(Cl)cc2Cl)C(=O)N1` the lipid storage change, negative = inhibition was inconclusive: -1.67%. In the case of `C=CCn1c(O)c(C(C)=NCc2ccc3c(c2)OCO3)c(=O)[nH]c1=O`, the lipid storage change, negative = inhibition is reported as “inactive”. With `Cc1nc2ccccc2c(=O)n1-c1cccc(C(F)(F)F)c1` the Potency was inconclusive: 1.46 µM [activator, partial curve, poor fit]. For `Cc1ccc(C(C)C)c(OCC(=O)N2CCN(CC(=O)N3CCOCC3)CC2)c1`, the Potency was inconclusive: 3.66 µM [falling, partial curve, poor fit]. For `CC1CCC(N2CCN(C(=O)COc3ccccc3)CC2)CC1` (stereo not drawn), the Potency was inconclusive: 29.1 µM [activator, single point]. In the case of `COc1cc2c(cc1OC)C(C(=O)NCCC(C)C)C1CCCCN1C2=O` (stereo not drawn), the lipid storage change, negative = inhibition is reported as inconclusive: -17.4%. With `Cc1cc(OC(C)C(=O)NCC(O)c2ccccc2)c2c3c(c(=O)oc2c1)CCCC3` (stereo not drawn) the Potency was inconclusive: 29.1 µM [activator, single point]. In the case of `CC(C)(O)C(=O)Nc1ccc([N+](=O)[O-])c(C(F)(F)F)c1`, the lipid storage change, negative = inhibition is reported as inconclusive: -59.4%. In the case of `FC(F)(F)/C(=N\P(=S)(N1CCOCC1)N1CCOCC1)N1CCOCC1`, the Potency is reported as inconclusive: 29.1 µM [falling, single point]. For `O=c1cccc2n1CC1CNCC2C1` (stereo not drawn), the Potency was inconclusive: 0.164 µM [falling, full curve, poor fit]. In the case of `CC(=NCc1ccco1)c1c(O)n(C)c(=O)n(C)c1=O`, the lipid storage change, negative = inhibition is reported as inconclusive: -18%. In the case of `O=C(O)COc1ccccc1/C=C1\C(=O)NC(=O)N(CCC2=CCCCC2)C1=O`, the lipid storage change, negative = inhibition is reported as inconclusive: -22.7%. For `CCCCCCn1c(=O)c(C(=O)Nc2c(C)n(C)n(-c3ccccc3)c2=O)c(O)c2ccccc21`, the Potency was inconclusive: 20.6 µM [activator, single point]. In the case of `CN1[C@H]2CC[C@@H]1C(C(=O)N1CCOCC1)=C(O)C2`, the Potency is reported as inconclusive: 0.231 µM [falling, full curve, poor fit]. With `O=c1[nH]c(=S)[nH]c(O)c1N=Nc1ccc2c(c1)OCCO2` the Potency was inconclusive: 25.9 µM [falling, partial curve, poor fit]. For `Cc1c(C(=O)N2CCC3(CC2)OCCO3)oc2ccccc12`, the Potency was inconclusive: 6.51 µM [falling, single point]. With `CCOc1cc(CNC(C)C(O)c2ccccc2)cc(Cl)c1OCC` (stereo not drawn) the lipid storage change, negative = inhibition was inconclusive: -4.68%. For `COc1ccc2[nH]c3c(c2c1)CCN=C3C`, the lipid storage change, negative = inhibition was inconclusive: -3.04%. For `Cc1cnc(-n2c(=S)[nH]c3ccccc3c2=O)s1`, the lipid storage change, negative = inhibition was inconclusive: 8.82%. For `O=C(NC(=O)N1CCC2(CC1)OCCO2)c1ccc(Cl)cc1`, the lipid storage change, negative = inhibition was inconclusive: 9.63%. With `COC(=O)C1=C(c2ccc(OC)c(OC)c2)C[C@@H]2CC[C@H]1N2C(=O)NCCO` the lipid storage change, negative = inhibition was inconclusive: 4.17%. With `COc1ccc(-n2c(O)c(C=NCCN3CCN(C(C)=O)CC3)c(=O)[nH]c2=S)cc1` the Potency was inconclusive: 1.16 µM [activator, partial curve, poor fit]. In the case of `CCCC(C)n1[nH]c(=O)c2c1NC(=O)CSC2c1ccc(OC)cc1` (stereo not drawn), the lipid storage change, negative = inhibition is reported as inconclusive: 16.8%. With `COc1cc(/C=C/c2nc3ccccc3c(=O)n2-c2cccc(O)c2)ccc1O` the lipid storage change, negative = inhibition was inconclusive: -20.5%. With `Cc1c(N=Cc2c(O)n(C)c(=O)[nH]c2=O)c(=O)n(-c2ccccc2)n1C` the lipid storage change, negative = inhibition was inconclusive: -10.8%. For `CC(C)CC(NC(=O)C1CCCCC1)C(=O)N1CCC2(CC1)OCCO2` (stereo not drawn), the lipid storage change, negative = inhibition was inconclusive: -36.1%. In the case of `CC(=O)OC1CCC2(/C=N/O)C(=CCC3C4CCC(=O)C4(C)CCC32)C1` (stereo not drawn), the lipid storage change, negative = inhibition is reported as inconclusive: -14.6%. For `Cc1cc(/C=C2\C(=O)NC(=O)N(c3cccc(Br)c3)C2=O)c(C)n1C`, the lipid storage change, negative = inhibition was inconclusive: -17%. For `c1csc(CN2CCNCC2)c1`, the lipid storage change, negative = inhibition was inconclusive: 55.1%. In the case of `Cc1cc(OC(C)C(=O)NCc2ccncc2)c2c3c(c(=O)oc2c1)CCCC3` (stereo not drawn), the Potency is reported as inconclusive: 25.9 µM [falling, partial curve, poor fit]. In the case of `Cc1cc(C(=O)NP(=O)(N2CCOCC2)N2CCOCC2)c(C)n1C1CC1`, the lipid storage change, negative = inhibition is reported as inconclusive: -43.5%. In the case of `CC1(C)CN(S(=O)(=O)OCC(Cl)(Cl)Cl)C(=O)N1`, the lipid storage change, negative = inhibition is reported as inconclusive: 85.9%. With `CCOc1ccc(C2C(C#N)=C(N)Oc3c2c(=O)oc2ccccc32)cc1` (stereo not drawn) the lipid storage change, negative = inhibition was inconclusive: -5.6%. In the case of `O=c1[nH]c(=S)[nH]c(O)c1C(c1ccccn1)c1c(O)[nH]c(=S)[nH]c1=O`, the lipid storage change, negative = inhibition is reported as inconclusive: -53.7%. With `Cc1cccn2c(NCC3CCCO3)c(C(C)C)nc12` (stereo not drawn) the lipid storage change, negative = inhibition was inconclusive: -6.01%. For `O=C(/C=C/c1ccccc1)c1c(O)n(CCc2ccccc2)c(=O)[nH]c1=O`, the lipid storage change, negative = inhibition was inconclusive: 0.576%. For `O=P(O)(c1ccc(Cl)cc1)c1ccc(Cl)cc1`, the Potency was inconclusive: 29.1 µM [falling, single point]. In the case of `C/C(=N\NC(=O)c1ccccc1)c1c(O)n(Cc2ccccc2)c(=O)[nH]c1=O`, the lipid storage change, negative = inhibition is reported as inconclusive: 36.2%. In the case of `Cc1cc(Cl)ccc1OCC(=O)N1CCN(C)CC1`, the lipid storage change, negative = inhibition is reported as inconclusive: 6.49%. With `CCN(CC)CCCC(C)N=C(c1ccccc1)c1c(O)n(C)c(=O)n(C)c1=O` (stereo not drawn) the Potency was inconclusive: 0.0231 µM [falling, full curve, poor fit]. In the case of `O=C1CN(O)C(c2ccccc2)=c2cc(Br)ccc2=N1`, the lipid storage change, negative = inhibition is reported as inconclusive: -33.5%. For `C=CCn1c(O)c(N=Nc2c(C)n(C)n(-c3ccccc3)c2=O)c(=O)[nH]c1=S`, the Potency was inconclusive: 14.6 µM [falling, single point]. With `CCn1c(C)c(C(=O)NCCc2ccccc2)c2cc(OC)ccc21` the lipid storage change, negative = inhibition was inconclusive: 39.6%. For `CC1CN(c2ccc([N+](=O)[O-])c3cccnc23)CC(C)N1` (stereo not drawn), the lipid storage change, negative = inhibition was inconclusive: 449%. With `Cc1cccc(C)c1OP(N)(=O)Oc1c(C)cccc1C` the lipid storage change, negative = inhibition was inconclusive: 4.95%. In the case of `Nc1nonc1OCCCCOc1nonc1N`, the lipid storage change, negative = inhibition is reported as inconclusive: -14.5%. In the case of `Cc1cccc(-n2c(O)c(/C=C/C=Nc3ccccc3)c(=O)[nH]c2=O)c1`, the Potency is reported as inconclusive: 5.17 µM [falling, partial curve]. For `CC1=C(C(=O)Nc2ccccc2)SCCO1`, the Potency was active: 18.4 µM. For `Cc1ccc2occ(CN3CC4CC(C3)c3cccc(=O)n3C4)c(=O)c2c1` (stereo not drawn), the lipid storage change, negative = inhibition was inconclusive: 8.54%. In the case of `CC(C)[C@H](NC(=O)N1C[C@H]2C[C@@H](C1)c1cccc(=O)n1C2)C(=O)Nc1ccccc1F`, the lipid storage change, negative = inhibition is reported as inconclusive: -28.8%. In the case of `O=P(Nc1ccccc1)(Nc1ccccc1)Oc1ccc(Cl)cc1`, the lipid storage change, negative = inhibition is reported as inconclusive: -52.3%. In the case of `Cc1ccc(C(O)P(=O)(Oc2ccccc2)Oc2ccccc2)cc1` (stereo not drawn), the Potency is reported as inconclusive: 0.058 µM [falling, full curve, poor fit]. For `COC(=O)c1ccccc1OP1(=O)COc2ccccc2OC1`, the Potency was inconclusive: 29.1 µM [falling, single point]. With `COc1ccc(Cn2c(O)c(/C=N/NC(=O)c3ccccc3)c(=O)[nH]c2=O)cc1` the lipid storage change, negative = inhibition was inconclusive: 14.1%. With `COc1ccccc1N1CCN(CCc2ccccc2)CC1` the lipid storage change, negative = inhibition was inconclusive: 17%. For `c1ccc(NC2=NCCS2)cc1`, the lipid storage change, negative = inhibition was inconclusive: 25.3%. For `Cc1cc(=O)oc2c(C)c(OCC(=O)N3CCC(C(=O)O)(c4ccccc4)CC3)ccc12`, the lipid storage change, negative = inhibition was inconclusive: -68.2%. In the case of `COc1cccc(N2C(=O)CC(=O)NC2=O)c1`, the Potency is reported as inconclusive: 0.731 µM [falling, full curve].
